This note sets out measurements from patent US5935811.

In data set [1] the test system is NRSF/REST (lambda-H1 encoded partial protein) (Homo sapiens). The data set is described as follows: EMSA. The note with it: protein translated in vitro, protein details: poly-histidine (pRSET B fusion). On the technique in general: Mobility shift assays separate free from complexed probe on a gel.
Data set [2] deals with T1, NRSF/REST (native) (Homo sapiens) (UniProt Q13127).
T1 sequence (looked up, limits assumed): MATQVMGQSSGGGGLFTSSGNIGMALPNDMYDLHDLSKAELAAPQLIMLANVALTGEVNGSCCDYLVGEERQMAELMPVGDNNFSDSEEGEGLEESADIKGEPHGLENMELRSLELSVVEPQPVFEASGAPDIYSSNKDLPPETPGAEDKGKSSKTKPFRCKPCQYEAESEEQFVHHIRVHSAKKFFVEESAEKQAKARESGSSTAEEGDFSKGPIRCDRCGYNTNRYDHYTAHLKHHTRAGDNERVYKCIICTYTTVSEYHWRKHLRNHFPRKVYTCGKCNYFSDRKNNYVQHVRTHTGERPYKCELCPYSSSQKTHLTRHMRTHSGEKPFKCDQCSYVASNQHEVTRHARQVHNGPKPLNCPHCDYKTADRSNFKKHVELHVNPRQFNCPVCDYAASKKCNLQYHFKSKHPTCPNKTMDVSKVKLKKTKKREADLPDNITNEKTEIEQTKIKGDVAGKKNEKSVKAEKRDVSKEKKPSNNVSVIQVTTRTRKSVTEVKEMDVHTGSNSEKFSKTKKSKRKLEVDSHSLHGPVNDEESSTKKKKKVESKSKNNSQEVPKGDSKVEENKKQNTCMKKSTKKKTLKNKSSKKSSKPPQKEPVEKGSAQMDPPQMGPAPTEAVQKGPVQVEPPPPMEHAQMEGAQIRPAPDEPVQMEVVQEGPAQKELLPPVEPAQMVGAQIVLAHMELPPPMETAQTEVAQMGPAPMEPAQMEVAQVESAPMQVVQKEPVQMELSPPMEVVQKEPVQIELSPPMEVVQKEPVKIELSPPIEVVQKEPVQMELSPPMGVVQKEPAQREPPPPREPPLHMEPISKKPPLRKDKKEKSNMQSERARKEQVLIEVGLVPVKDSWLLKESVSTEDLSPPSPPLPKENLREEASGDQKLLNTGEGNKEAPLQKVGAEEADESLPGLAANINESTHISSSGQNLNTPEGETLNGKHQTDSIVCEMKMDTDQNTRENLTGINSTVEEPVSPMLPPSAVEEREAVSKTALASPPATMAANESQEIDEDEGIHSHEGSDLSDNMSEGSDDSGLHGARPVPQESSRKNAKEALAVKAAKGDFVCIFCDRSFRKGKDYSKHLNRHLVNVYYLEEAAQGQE
Put plainly: EMSA. The note with it: protein in an extract, protein details: HeLa nuclear extract.

For data set [3], the system named is NRSF/REST (lambda-H1 encoded partial protein) (Homo sapiens). The data set is described as follows: competition with a labelled probe. The following applies: no competition of S36 complex in EMSA; protein translated in vitro; protein details: poly-histidine (pRSET B fusion).
Data set [4] concerns the target T1, NRSF/REST (native) (Homo sapiens). Put plainly: competition with a labelled probe. The note with it: no competition of S36 complex in EMSA; protein in an extract; protein details: HeLa nuclear extract.
For data set [5], the target named is T2, NRSF/REST (lambda-HZ4 partial) (Homo sapiens) (UniProt Q13127).
T2 sequence: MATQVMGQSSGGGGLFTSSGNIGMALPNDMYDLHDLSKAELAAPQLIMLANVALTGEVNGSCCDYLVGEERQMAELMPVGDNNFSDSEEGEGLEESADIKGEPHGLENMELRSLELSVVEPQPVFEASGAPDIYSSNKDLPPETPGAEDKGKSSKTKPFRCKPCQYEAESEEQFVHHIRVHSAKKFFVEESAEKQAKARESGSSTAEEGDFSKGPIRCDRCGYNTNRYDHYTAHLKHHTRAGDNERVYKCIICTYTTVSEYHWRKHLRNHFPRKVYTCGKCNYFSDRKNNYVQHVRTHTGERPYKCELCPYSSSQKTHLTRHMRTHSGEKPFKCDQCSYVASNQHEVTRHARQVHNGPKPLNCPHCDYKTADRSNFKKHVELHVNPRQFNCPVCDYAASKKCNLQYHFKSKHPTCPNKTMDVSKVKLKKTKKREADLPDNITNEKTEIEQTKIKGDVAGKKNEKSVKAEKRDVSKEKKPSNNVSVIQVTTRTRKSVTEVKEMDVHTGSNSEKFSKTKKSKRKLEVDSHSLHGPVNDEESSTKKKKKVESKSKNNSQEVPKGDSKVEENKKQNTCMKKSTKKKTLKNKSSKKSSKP
Put plainly: activity in cells. The note with it: pCAT3-S36++ CAT reporter, two NRSE copies, PC12 cells; protein in cells; protein details: initiating Met from pcDNA3-ATG vector; only the site is given.

Where [6] appears, read: restriction fragment probe containing the NRSE, label: 32P.

For some assays here: At least one result comes from cells or an extract, where the contact may be indirect. For some assays here: Negatives hold for the conditions tested. For some assays here: Protein sequences can lack the tags named with them. For some assays here: For at least one entry, the source does not settle the construct or the ends of the probe.

For “ATTGGGTTTCAGAACCACGGACAGCACCAGAGT (double strand) [Na33 (type II sodium channel NRSE)]”, the binding result in data set [1] and in data set [2] was “binds” throughout.
As for “GCGGAACGGAAGCGGAAACCG (double strand) [Ets factor site]”, the binding result in data set [3] and in data set [4] was “no binding” throughout.
Take “AGAGTCCATTCAGCACCTTGGACAGAGCCAGCGG (double strand) [BDNF NRSE]”: the binding result in data set [1] (setting [6]) and in data set [2] (label: 32P) was “binds” each time.
As to “AGCTGCAAAGCCATTTCAGCACCACGGAGAGTGCCTCTGC (double strand) [S36 (SCG10 NRSE)]”, the binding result is “binds” in data set [1] (probe with two tandem S36 copies, supershifted by anti-GST-lambda-H1, label: 32P) and “binds” in data set [2] (HeLa nuclear extract, partially supershifted, label: 32P). Further, the “activity on this sequence” value in data set [5] was “active”.
As to “ATGCCAGCTTCAGCACCGCGGACAGTGCCTTCC (double strand) [Syn (synapsin I NRSE)]”, the binding result in data set [1] (setting [6]) and in data set [2] (label: 32P) was “binds” each time.
